# According to PubChem BioAssay AID194 (DTP/NCI, 2004):
# The list shows only some results of the screen, not a fair sample: it is rich in T/C values a quarter to a half above the control, in often repeated tests (any T/C) and in doses without a T/C. Other doses and runs of a compound stand elsewhere. T/C is the treated group as % of the vehicle group. Some doses have a count of surviving animals in place of a T/C: the source files T/C as zero there, which appears to mark a toxic dose or a test without result, not a measured value. Some survivor counts are full or nearly so, which does not show that the dose was tolerated: the source hardly ever lists a survival T/C far under the control, and the zero likely stands for such cases as well. Survivors were counted at the toxicity check, usually on the fifth day, unless a day is given; later deaths do not show. Schedules are NCI's codes, taken here to give the interval after Q, in days (D) or hours (H), and the number of doses after X. Some entries were tested several times; the results are listed from low to high. For survival time, the PubChem record calls one and a half times the control and up active, and a quarter to a half above the control has no call in these data; cut-offs in other NCI protocols can differ. Some T/C values carry the count of animals alive at the toxicity check (mostly the fifth day); without a count, all were alive then.
# Test system: BDF1 mice, B16 melanoma s.c., survival/tumor T/C
# Experiment: NCI In Vivo Anticancer Drug Screen. Data for tumor model B16 Melanoma (subcutaneous) in B6D2F1 (BDF1) mice
# Settings: T/C endpoint: median survival time, higher T/C = longer survival
# Experimental: The antitumor activity of compounds was measured in mice bearing transplantable tumors. Survival or tumor size were measured and the results are expressed as the measurement made in the treated group (T) divided by the measurement made in the vehicle treated control group (C). The tumor model used in this assay is B16 Melanoma (subcutaneous) in B6D2F1 (BDF1) mice
# [1] = dose: 8.0 mg/kg/injection, schedule: Q01DX009 (ip), vehicle: saline
# [2] = dose: 32.0 mg/kg/injection, schedule: Q01DX009 (ip), vehicle: saline
# [3] = dose: 128.0 mg/kg/injection, schedule: Q01DX009 (ip), vehicle: saline
# [4] = dose: 400.0 mg/kg/injection, schedule: Q04DX003 (ip), vehicle: saline
# [5] = dose: 40.0 mg/kg/injection, schedule: Q01DX009 (ip), vehicle: saline
# [6] = dose: 3.0 mg/kg/injection, schedule: Q01DX009 (ip), vehicle: saline
# [7] = dose: 6.0 mg/kg/injection, schedule: Q01DX009 (ip), vehicle: saline
smiles,measurement,setting,value
COc1ccc(C[C@H](N)C(=O)NC2C(CO)OC(n3cnc4c(N(C)C)ncnc43)C2O)cc1 (stereo not given in full),T/C,[1],137 % of control
same,T/C,"dose: 16.0 mg/kg/injection, schedule: Q01DX009 (ip), vehicle: saline",148 % of control
same,survivor count,[2],5 of 5
same,survivor count,[3],3 of 5 and 5 of 5
same,survivor count,"dose: 256.0 mg/kg/injection, schedule: Q01DX009 (ip), vehicle: saline",0 of 5
CN1c2c(nc(N)[nH]c2=O)NCC1CCNc1ccc(C(=O)NC(CCC(=O)O)C(=O)O)cc1 (stereo not given),T/C,"dose: 400.0 mg/kg/injection, schedule: Q01DX009 (ip), vehicle: saline",147 % of control
same,T/C,[4],128 % of control
same,T/C,"dose: 600.0 mg/kg/injection, schedule: Q01DX009 (ip), vehicle: saline",143 % of control
same,T/C,"dose: 900.0 mg/kg/injection, schedule: Q01DX009 (ip), vehicle: saline, evaluated on day 50",130 % of control
same,T/C,"dose: 900.0 mg/kg/injection, schedule: Q01DX009 (ip), vehicle: saline, evaluated on day 60",131 % of control
same,T/C,"dose: 1200.0 mg/kg/injection, schedule: Q01DX009 (ip), vehicle: saline",149 % of control
same,T/C,"dose: 1200.0 mg/kg/injection, schedule: Q04DX003 (ip), vehicle: saline",126 % of control
same,T/C,"dose: 1800.0 mg/kg/injection, schedule: Q01DX001 (ip), vehicle: saline",142 % of control
C[CH2][Ge]1([CH2]C)[CH2]CC2(CCN(CCCN(C)C)C2)C[CH2]1,survivor count,"dose: 64.0 mg/kg/injection, schedule: Q02DX009 (ip), vehicle: saline",10 of 10
same,survivor count,"dose: 128.0 mg/kg/injection, schedule: Q02DX009 (ip), vehicle: saline",1 of 10
C[C@@H]1CC[C@@]2(NC1)O[C@H]1C[C@H]3[C@@H]4CC=C5C[C@@H](O)CC[C@]5(C)[C@H]4CC[C@]3(C)[C@H]1[C@@H]2C,T/C,"dose: 3.13 mg/kg/injection, schedule: Q01DX009 (ip), vehicle: Klucel (hydroxypropylcellulose) (HPC)",140 % of control
COC(=O)[C@@H]1c2cc3c(c(O)c2[C@@H](OC2OC(C)C(OC)C(C)(OC)C2OC)C[C@]1(C)O)C(=O)c1c(O)cc2c(c1C3=O)O[C@H]1O[C@]2(C)[C@H](O)[C@@H](N(C)C)[C@@H]1O (stereo not given in full),survivor count,"dose: 1.0 mg/kg/injection, schedule: Q01DX009 (ip), vehicle: other",7 of 10
same,survivor count,"dose: 2.0 mg/kg/injection, schedule: Q01DX009 (ip), vehicle: other",9 of 10
same,T/C,"dose: 250.0 micrograms/kg/injection, schedule: Q01DX009 (ip), vehicle: saline + alcohol",144 % of control
O=NN(CCF)C(=O)N[C@H]1CCCC[C@H]1O,T/C,"dose: 3.11 mg/kg/injection, schedule: Q01DX007 (ip), vehicle: water",126 % of control
same,survivor count,"dose: 24.0 mg/kg/injection, schedule: Q01DX007 (ip), vehicle: water",1 of 10 on day 55
CC1(C)N=C(N)N=C(N)N1c1ccc(OCc2ccc(C(=O)Nc3cccc(S(=O)(=O)F)c3)cc2)c(Cl)c1,T/C,"dose: 50.0 mg/kg/injection, schedule: Q04DX003 (ip), vehicle: saline",131 % of control
same,survivor count,"dose: 100.0 mg/kg/injection, schedule: Q04DX003 (ip), vehicle: saline",6 of 6
same,survivor count,"dose: 200.0 mg/kg/injection, schedule: Q04DX003 (ip), vehicle: saline",4 of 6
same,survivor count,[4],0 of 6
CCN1C=C/C(=C/c2cc3scc(-c4ccccc4)[n+]3c3ccccc23)c2ccccc21,T/C,"dose: 0.08 mg/kg/injection, schedule: Q01DX009 (ip), vehicle: Klucel (hydroxypropylcellulose) (HPC)",130 % of control
same,survivor count,"dose: 0.3 mg/kg/injection, schedule: Q01DX009 (ip), vehicle: Klucel (hydroxypropylcellulose) (HPC)",10 of 10
same,survivor count,"dose: 0.6 mg/kg/injection, schedule: Q01DX009 (ip), vehicle: Klucel (hydroxypropylcellulose) (HPC)",7 of 10
Nc1nncs1,T/C,"dose: 26.0 mg/kg/injection, schedule: Q01DX009 (ip), vehicle: saline with Tween-80",126 % of control
same,T/C,"dose: 39.0 mg/kg/injection, schedule: Q01DX009 (ip), vehicle: saline with Tween-80",125 % of control [9 of 10 alive]
same,T/C,"dose: 800.0 mg/kg/injection, schedule: Q04DX003 (ip), vehicle: saline with Tween-80",143 % of control
same,T/C,"dose: 1340.0 mg/kg/injection, schedule: Q01DX001 (ip), vehicle: saline with Tween-80",126 % of control [9 of 10 alive]
FC(F)(F)c1nc2nc(Cl)c(Cl)nc2[nH]1,T/C,[2],133 % of control
same,survivor count,"dose: 64.0 mg/kg/injection, schedule: Q01DX009 (ip), vehicle: saline",7 of 8
same,survivor count,[3],0 of 8
CNc1ncnc2c1cnn2C,survivor count,[5],10 of 10
same,survivor count,"dose: 80.0 mg/kg/injection, schedule: Q01DX009 (ip), vehicle: saline",10 of 10
CC1(C)N=C(N)N=C(N)N1c1ccc(CCCCc2cccc(S(=O)(=O)F)c2)c(Cl)c1,survivor count,[1],6 of 6
same,survivor count,"dose: 27.0 mg/kg/injection, schedule: Q01DX009 (ip), vehicle: saline",6 of 6
same,survivor count,[5],2 of 6
CSCS(=O)C[C@H](CO)NC(=O)/C=C/c1c(C)[nH]c(=O)[nH]c1=O (stereo not given in full),survivor count,"dose: 1.2 mg/kg/injection, schedule: Q01DX009 (ip), vehicle: water",6 of 10
CC(C)(C)c1ccc(CN2CCN(C(c3ccccc3)c3ccc(Cl)cc3)CC2)cc1 (stereo not given),survivor count,"dose: 2.8 micrograms/kg/injection, schedule: Q01DX009 (ip), vehicle: Klucel (hydroxypropylcellulose) (HPC)",9 of 10
same,survivor count,"dose: 5.6 micrograms/kg/injection, schedule: Q01DX009 (ip), vehicle: Klucel (hydroxypropylcellulose) (HPC)",10 of 10
same,survivor count,"dose: 11.2 micrograms/kg/injection, schedule: Q01DX009 (ip), vehicle: Klucel (hydroxypropylcellulose) (HPC)",10 of 10
Nc1ncn(C2OC(CO)C(O)C2O)c(=O)n1 (stereo not given),T/C,"dose: 0.75 mg/kg/injection, schedule: Q01DX009 (ip), vehicle: saline","90, 105, 109, 112, 116, 166 % of control"
same,T/C,"dose: 1.5 mg/kg/injection, schedule: Q01DX009 (ip), vehicle: Klucel (hydroxypropylcellulose) (HPC)",133 % of control
same,T/C,"dose: 1.5 mg/kg/injection, schedule: Q01DX009 (ip), vehicle: saline","95, 108, 113, 120, 121, 148 % of control"
same,T/C,"dose: 1.6 mg/kg/injection, schedule: Q01DX009 (ip), vehicle: saline",126 % of control [9 of 10 alive]
same,survivor count,"dose: 3.0 mg/kg/injection, schedule: Q01DX009 (ip), vehicle: Klucel (hydroxypropylcellulose) (HPC)",6 of 6
same,T/C,[6],"112, 120, 130, 134, 138 % of control"
same,survivor count,[6],6 of 6
same,survivor count,"dose: 6.0 mg/kg/injection, schedule: Q01DX009 (ip), vehicle: Klucel (hydroxypropylcellulose) (HPC)",6 of 6
same,T/C,[7],"109, 110, 132 % of control"
same,survivor count,[7],4 of 6 and 6 of 6
same,survivor count,"dose: 6.4 mg/kg/injection, schedule: Q01DX009 (ip), vehicle: saline",10 of 10
same,T/C,"dose: 10.0 mg/kg/injection, schedule: Q01DX001 (ip), vehicle: saline",132 % of control
same,survivor count,"dose: 12.8 mg/kg/injection, schedule: Q01DX009 (ip), vehicle: saline",3 of 10
same,survivor count,"dose: 20.0 mg/kg/injection, schedule: Q01DX001 (ip), vehicle: saline",4 of 6
same,survivor count,"dose: 25.6 mg/kg/injection, schedule: Q01DX009 (ip), vehicle: saline",2 of 10
same,survivor count,"dose: 51.2 mg/kg/injection, schedule: Q01DX009 (ip), vehicle: saline",0 of 10
COc1cccc2c1C(=O)c1c(O)c3c(c(O)c1C2=O)C[C@@](O)(C(=O)COC(=O)Cc1cccc2ccccc12)C[C@@H]3OC1CC(N)C(O)C(C)O1 (stereo not given in full),T/C,"dose: 0.5 mg/kg/injection, schedule: Q01DX009 (ip), vehicle: saline with Tween-80",142 % of control
same,survivor count,"dose: 8.0 mg/kg/injection, schedule: Q01DX009 (ip), vehicle: saline with Tween-80",10 of 10
same,survivor count,"dose: 16.0 mg/kg/injection, schedule: Q01DX009 (ip), vehicle: saline with Tween-80",10 of 10
Nc1nc(=S)c2[nH]cnc2[nH]1,survivor count,"dose: 71.0 mg/kg/injection, schedule: Q01DX001 (ip), vehicle: alkali diluted with saline",9 of 10
same,survivor count,"dose: 107.0 mg/kg/injection, schedule: Q01DX001 (ip), vehicle: alkali diluted with saline",8 of 10
